# Small-molecule microarray binding calls

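The test is a small-molecule microarray: each compound is printed twice on a reactive slide, and binding shows as fluorescence of the labelled oligonucleotide after washing. The data file lists only calls. An earlier report of the laboratory on the PreQ1, TPP and SAM-II riboswitches (doi:10.1038/s41467-019-09493-3) used 1 µM RNA for 2 h and required a mean Z-score above 3 (spot signal-to-noise against the whole library), a score well above that on a control array, and duplicate spots agreeing (coefficient of variation under 100); it then also set aside compounds that hit other targets, which this list keeps. The cut-offs behind this list may differ. These are primary screening calls, not affinities; a compound without a hit may have attached poorly or may still bind in solution.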
A compound is marked active if it was called a hit and inactive if it was screened but was not.
Compounds were drawn at random from those tested, without regard to their results.
A target missing from an entry has no call listed here.

Oligonucleotides screened, 5′ to 3′:
TPP: TPP riboswitch RNA three-way junction, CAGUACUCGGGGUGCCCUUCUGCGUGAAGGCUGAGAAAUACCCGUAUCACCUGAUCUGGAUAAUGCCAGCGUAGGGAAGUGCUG. Hit rate about 0.7% of about 24,000 compounds.
SAM-II: SAM-II riboswitch RNA pseudoknot, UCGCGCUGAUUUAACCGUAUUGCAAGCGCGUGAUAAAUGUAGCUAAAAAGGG. Hit rate about 1% of about 21,000 compounds.

Calls for CCOc1ccc(CNc2ccc(N3CCN(Cc4ccccc4)CC3)cc2)cc1 are TPP: inactive; SAM-II: inactive. With Cc1cccc(-c2nn3c(NCCN4CCOCC4)cc(C)nc3c2C)c1 the screen gave TPP: inactive. O=C(NNc1ccccn1)C1CCCNC1 (stereo not given) was scored TPP: inactive; SAM-II: inactive. With CCNC(=O)C[C@H]1N=C(c2ccc(Cl)cc2)c2cc(OC)ccc2-n2c(C)nnc21 the screen gave TPP: inactive; SAM-II: inactive.

With CCOC(=O)C1=C(C)OC(N)=C(C#N)C1c1ccc(C(C)C)cc1 (stereo not given) the screen gave TPP: inactive; SAM-II: inactive. For O=C(c1cccs1)N1CCC(N2CCC3(CCCNC3)C2)CC1 (stereo not given) the calls were TPP: inactive; SAM-II: inactive. With Nc1ccccc1C(=O)Nc1nc2ccc(Cl)cc2s1 the screen gave TPP: inactive; SAM-II: inactive. Calls for C=C1C(=CC=C2CCC[C@]3(C)[C@@H]([C@H](C)C=C[C@H](C)C(C)C)CC[C@@H]23)C[C@@H](O)C[C@@H]1O are TPP: inactive; SAM-II: inactive.

Calls for O=C(Nc1cc(Cl)cc(Cl)c1)N1C[C@H]2CC[C@@H](C1)[C@H]2O are TPP: inactive; SAM-II: inactive. For Cc1ccc(NC(=O)Nc2cccnc2)cc1NC(=O)Nc1cccnc1 the calls were TPP: inactive; SAM-II: inactive. With COc1ccc2ccccc2c1CNCCNC(=O)c1nonc1N the screen gave TPP: inactive. For CCC(NCC(=O)Nc1ccc(Cl)c(OC)c1)c1ccnn1C (stereo not given) the calls were TPP: inactive; SAM-II: inactive.

With Nc1nc(N)nc(-c2ccc(Oc3ccccc3)cc2)n1 the screen gave TPP: inactive; SAM-II: inactive. With NCc1nnc2ccc(Cl)nn12 the screen gave TPP: inactive; SAM-II: inactive. For O=C(CCN1Cc2ccccc2C1=O)N1CCC2(CC1)OCCCC2O (stereo not given) the calls were TPP: inactive; SAM-II: inactive. Calls for Cc1ccccc1OCC(=O)N1CCN(C(=O)c2nonc2N)CC1 are TPP: inactive.

O=S(=O)(c1ccc(Cl)cc1)c1nc(-c2ccccc2)oc1NCCCn1ccnc1 was scored TPP: active. With COC(=O)CCCNc1cc(C)nc2nc(-c3ccc(C(C)(C)C)cc3)nn12 the screen gave TPP: inactive. Cc1ccsc1-c1cc(-c2scnc2C)nc(N)c1C#N was scored TPP: inactive; SAM-II: inactive. Calls for Nc1ccc2oc(=O)c(-c3ccccc3)cc2c1 are TPP: inactive; SAM-II: inactive.

For Cc1cc(C)c(CNC(=O)c2cc(-c3ccc(CN4CCOCC4)cc3)cc3c2cnn3C2CCCC2)c(=O)[nH]1 the calls were TPP: inactive; SAM-II: inactive. With COc1ccc(CNc2nc3c(C)cccc3cc2-c2noc(C)n2)cc1 the screen gave TPP: inactive. For Cc1cc(N2CCN(C(=O)Nc3ccnn3C3CCCCC3)CC2)nc(N)n1 the calls were TPP: inactive; SAM-II: inactive. For O=C(Nc1ccc(OCC(O)Cn2c3ccccc3c3ccccc32)cc1)c1ccccc1 (stereo not given) the calls were TPP: inactive; SAM-II: inactive.

For N#Cc1c(N)nc(N)nc1Nc1ccc(Br)cc1 the calls were TPP: inactive; SAM-II: inactive. For OCCn1ccnc1-c1cccc(OCc2ccccc2)c1 the calls were TPP: inactive; SAM-II: inactive. With CN(C)C(=O)c1cncc(-c2cc(O)cc(CCC3CCCCN3)c2)n1 (stereo not given) the screen gave TPP: inactive; SAM-II: inactive. With O=C(c1cccc(Oc2ccccc2)c1)N1CCOCC(CO)C1 (stereo not given) the screen gave TPP: inactive; SAM-II: inactive.

Calls for O=C1NC(Cc2ccccc2Cl)(C2CCNCC2)C(=O)N1Cc1cncs1 (stereo not given) are TPP: inactive; SAM-II: inactive. For COC(=O)C1=C(N)Oc2c(c(=O)oc3ccccc23)C1c1cccnc1 (stereo not given) the calls were TPP: inactive; SAM-II: inactive. Calls for COCCn1cnnc1CCNC(=O)c1ccccc1C1CCNC1 (stereo not given) are TPP: inactive; SAM-II: inactive. COc1cccc(N2CCN(C(=O)c3cc(N)ccn3)C(C)C2=O)c1 (stereo not given) was scored TPP: inactive; SAM-II: inactive.

Calls for CCOC(=O)N1CCC(Nc2c(N3CCN(C4CCCCC4)CC3)c(=O)c2=O)CC1 are TPP: inactive. With CC(O)CN1CC2(CCC1=O)CCN(S(=O)(=O)N1CCCC1)CC2 (stereo not given) the screen gave TPP: inactive; SAM-II: inactive. COc1ccc(-c2csc(Nc3ccc(S(=O)(=O)Nc4cc(C)on4)cc3)n2)cc1C was scored TPP: inactive; SAM-II: inactive. CCc1cc(-c2nc(-c3ccncc3)nn2CCO)ccn1 was scored TPP: inactive; SAM-II: inactive.

Calls for O=C(NCC(O)c1ccccc1C(F)(F)F)c1c[nH]nc1-c1ccccc1 (stereo not given) are TPP: inactive; SAM-II: inactive. Calls for CN1CCN(C2=C(Nc3ccc(F)cc3)C(=O)c3ccccc3C2=O)CC1 are TPP: inactive; SAM-II: inactive. With COc1ccc(OC(=O)Nc2ccc([N+](=O)[O-])cc2OC)cc1 the screen gave TPP: inactive; SAM-II: inactive. For CCOc1ccc(C2C(C#N)=C(N)Oc3[nH]cnc(=O)c32)cc1 (stereo not given) the calls were TPP: inactive; SAM-II: inactive.

With CC(O)c1nc2ccccc2n1Cc1ccccc1 (stereo not given) the screen gave TPP: inactive; SAM-II: inactive. For CCOc1ccc(C2c3c(-c4cc(C)ccc4O)n[nH]c3C(=O)N2CCCO)cc1OC (stereo not given) the calls were TPP: inactive. For COC(=O)C1=C(N)OC2=C(C(=O)CC(c3ccccc3)C2)C1c1cccc(Br)c1 (stereo not given) the calls were TPP: inactive; SAM-II: inactive. For Cn1ncc(N2CCC(CNC(=O)[C@@H](N)c3ccccc3)CC2)cc1=O the calls were TPP: inactive; SAM-II: inactive.

Calls for CCNC(=O)[C@@H]1C[C@H](N)CN1C(=O)c1c(-c2ccccc2)noc1C are TPP: inactive; SAM-II: inactive.

Calls as published in the ROBIN set (doi:10.1002/anie.202211358).